These results are taken from PubChem BioAssay AID445 (National Center for Advancing Translational Sciences (NCATS), 2006).

This is one part of the list. The main result of the screen is listed elsewhere. These columns were measured beside it and carry no call. Compounds called inactive in the main read-out are mostly missing here. Words in brackets tell the shape of the fitted curve; partial curves, single points and poor fits give uncertain potencies.

The experiment can be described thus: IkB Signaling. To be noted: ABC-DLBCL IkBa-CBG/CBR dual luciferase ratio (green luciferase fused to IkBa over red control in OCI-Ly3 lymphoma cells), 4 h. The procedure, abridged: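 Luminescence ratio of IκBα-fused green versus native red beetle luciferase in OCI-Ly3 cells, 4 h post-doxycycline with compound; red signal alone, scaled from basal (0%) to zero light (-100%), flagged nonspecific or cytotoxic effects.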
[1] abbreviates: measured here: control luc red channel unless noted.

On to `COc1ccc(CCN2CC(C#N)=C3c4cc(OC)c(OC)cc4CCN3C2)cc1OC`, for which, under setting [1], the AC50 was 12.6 µM [falling, partial curve].

In the case of `COc1ccccc1N1CCN(C(=O)c2sc3nc(-c4ccc(F)cc4)cn3c2C)CC1`, the AC50 runs as follows: (measured here: IkB-luc green channel) 15.8 µM [falling, partial curve]; (measured here: control luc red channel) 3.98 µM [falling, full curve].

Take `O=S(=O)(c1ccc(F)cc1)N(CCO)CC(O)Cn1c2ccccc2c2ccccc21` (stereo not drawn): the AC50 under setting [1] was 20 µM [falling, partial curve].

Consider `Cc1cccn2cc(-c3cccc(NC(=O)C(C)C)c3)nc12`, for which the AC50 under setting [1] was 10 µM [falling, partial curve].

`Cc1ccc(-c2cn3cccnc3n2)cc1NC(=O)Nc1ccc(F)cc1`: the AC50 under setting [1] is 6.31 µM [rising, partial curve].

On to `COc1ccc2c(c1)c(=O)c(S(=O)(=O)c1ccc(F)cc1)cn2Cc1ccccc1Cl`, for which, under setting [1], the AC50 was 6.31 µM [falling, single point].

As to `COc1cccc2c(C)cc3nnc(SCC(=O)Nc4ccc(C)cc4)n3c12`, the AC50 under setting [1] was 20 µM [falling, partial curve].

Take `O=C(Cn1ncc2c1-c1ccccc1OC2)N1CCN(c2ccccc2)CC1`: the AC50 under setting [1] was 39.8 µM [falling, single point].

In the case of `O=C(c1ccc2c(c1)OCO2)c1cn(Cc2ccc(Cl)cc2)c2ccc(F)cc2c1=O`, under setting [1], the half-maximal activity concentration (AC50) was 15.8 µM [falling, partial curve].

`CCCCOc1ccc(C(=O)N2CCCCC2CCN2CCOCC2)cc1` (stereo not drawn): the AC50 under setting [1] is 39.8 µM [falling, single point].

`CC1CCC(NC(=O)c2ccc(CS(=O)(=O)c3ccc(Cl)cc3)o2)CC1` (stereo not drawn): under setting [1], the AC50 is 25.1 µM [falling, single point].

Regarding `CCN(CC)S(=O)(=O)c1ccc(C(=O)NCCSc2c(-c3ccc(F)cc3)[nH]c3ccccc23)cc1`, the AC50 under setting [1] was 5.01 µM [falling, full curve].

In the case of `O=C(Nc1c(C(=O)N2CCN(c3ccccc3F)CC2)oc2ccccc12)c1cccc(F)c1`, under setting [1], the AC50 was 0.631 µM [falling, full curve, poor fit].

For the molecule `CCC1CCCCN1C(=O)Nc1cccc(NC(=O)N2CCCCC2CC)c1` (stereo not drawn), the AC50 under setting [1] is 20 µM [falling, partial curve].

On to `COc1ccc(CCNC(=O)C(=O)NCC(c2ccco2)S(=O)(=O)c2ccc(C)cc2)cc1` (stereo not drawn), for which, under setting [1], the AC50 was 0.0398 µM [rising, full curve, poor fit].

As for `CCOc1cc(/C=C(/C#N)c2ccc(F)cc2)ccc1OCc1ccc(C(=O)O)o1`, the AC50 under setting [1] is 25.1 µM [falling, partial curve].

On to `O=C(CCn1c(=O)c2cccn2c2cccnc21)N1CCN(c2cccc(C(F)(F)F)c2)CC1`, for which the AC50 under setting [1] is 31.6 µM [falling, single point].

Broadly, the AC50 is the concentration at which the activity in the assay is half-maximal.
